From the supplement of paper PMC12819154, “High-throughput peptide-centric local stability assay extends protein–ligand identification to membrane proteins, tissues and bacteria” (Nature Structural & Molecular Biology, 2025)
The other results are listed elsewhere or left out. Small differences around the control level are noise.

Sequences of proteins named here, by UniProt entry; tags and fusion partners are left off. A change or cut given only in a name is not applied to a line headed by its entry.
UniProt Q3UYI5: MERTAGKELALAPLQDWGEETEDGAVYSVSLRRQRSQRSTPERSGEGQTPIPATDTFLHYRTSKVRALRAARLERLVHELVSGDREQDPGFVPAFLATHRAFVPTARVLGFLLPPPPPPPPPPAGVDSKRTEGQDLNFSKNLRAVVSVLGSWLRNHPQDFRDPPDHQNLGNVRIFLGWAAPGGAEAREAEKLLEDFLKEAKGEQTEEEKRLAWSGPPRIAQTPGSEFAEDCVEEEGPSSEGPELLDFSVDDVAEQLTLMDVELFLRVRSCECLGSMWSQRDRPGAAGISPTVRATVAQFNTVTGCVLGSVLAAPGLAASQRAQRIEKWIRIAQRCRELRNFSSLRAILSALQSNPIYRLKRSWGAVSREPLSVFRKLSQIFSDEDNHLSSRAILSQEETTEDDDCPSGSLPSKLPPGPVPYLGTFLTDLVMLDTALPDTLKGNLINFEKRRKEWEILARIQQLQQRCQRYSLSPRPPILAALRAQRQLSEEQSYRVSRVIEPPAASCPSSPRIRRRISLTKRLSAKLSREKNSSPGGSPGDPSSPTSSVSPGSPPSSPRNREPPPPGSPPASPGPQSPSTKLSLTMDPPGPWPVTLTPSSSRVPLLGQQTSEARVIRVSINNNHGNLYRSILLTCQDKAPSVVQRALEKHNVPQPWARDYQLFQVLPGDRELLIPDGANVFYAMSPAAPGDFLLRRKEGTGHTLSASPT
UniProt Q3UBX0: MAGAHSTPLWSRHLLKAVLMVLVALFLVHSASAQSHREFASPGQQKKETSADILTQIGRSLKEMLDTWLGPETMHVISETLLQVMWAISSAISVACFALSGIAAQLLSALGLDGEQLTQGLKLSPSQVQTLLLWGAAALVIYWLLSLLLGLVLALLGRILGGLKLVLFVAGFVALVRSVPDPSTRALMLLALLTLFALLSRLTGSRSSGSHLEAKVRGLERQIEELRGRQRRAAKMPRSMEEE
UniProt Q3UK78: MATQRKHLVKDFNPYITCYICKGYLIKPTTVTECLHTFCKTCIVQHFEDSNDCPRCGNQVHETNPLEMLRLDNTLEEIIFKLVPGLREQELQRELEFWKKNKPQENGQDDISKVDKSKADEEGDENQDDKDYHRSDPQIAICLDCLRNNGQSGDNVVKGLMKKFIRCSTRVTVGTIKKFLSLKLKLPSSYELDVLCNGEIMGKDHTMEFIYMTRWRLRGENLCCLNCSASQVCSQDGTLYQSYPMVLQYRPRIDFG
UniProt Q571C7: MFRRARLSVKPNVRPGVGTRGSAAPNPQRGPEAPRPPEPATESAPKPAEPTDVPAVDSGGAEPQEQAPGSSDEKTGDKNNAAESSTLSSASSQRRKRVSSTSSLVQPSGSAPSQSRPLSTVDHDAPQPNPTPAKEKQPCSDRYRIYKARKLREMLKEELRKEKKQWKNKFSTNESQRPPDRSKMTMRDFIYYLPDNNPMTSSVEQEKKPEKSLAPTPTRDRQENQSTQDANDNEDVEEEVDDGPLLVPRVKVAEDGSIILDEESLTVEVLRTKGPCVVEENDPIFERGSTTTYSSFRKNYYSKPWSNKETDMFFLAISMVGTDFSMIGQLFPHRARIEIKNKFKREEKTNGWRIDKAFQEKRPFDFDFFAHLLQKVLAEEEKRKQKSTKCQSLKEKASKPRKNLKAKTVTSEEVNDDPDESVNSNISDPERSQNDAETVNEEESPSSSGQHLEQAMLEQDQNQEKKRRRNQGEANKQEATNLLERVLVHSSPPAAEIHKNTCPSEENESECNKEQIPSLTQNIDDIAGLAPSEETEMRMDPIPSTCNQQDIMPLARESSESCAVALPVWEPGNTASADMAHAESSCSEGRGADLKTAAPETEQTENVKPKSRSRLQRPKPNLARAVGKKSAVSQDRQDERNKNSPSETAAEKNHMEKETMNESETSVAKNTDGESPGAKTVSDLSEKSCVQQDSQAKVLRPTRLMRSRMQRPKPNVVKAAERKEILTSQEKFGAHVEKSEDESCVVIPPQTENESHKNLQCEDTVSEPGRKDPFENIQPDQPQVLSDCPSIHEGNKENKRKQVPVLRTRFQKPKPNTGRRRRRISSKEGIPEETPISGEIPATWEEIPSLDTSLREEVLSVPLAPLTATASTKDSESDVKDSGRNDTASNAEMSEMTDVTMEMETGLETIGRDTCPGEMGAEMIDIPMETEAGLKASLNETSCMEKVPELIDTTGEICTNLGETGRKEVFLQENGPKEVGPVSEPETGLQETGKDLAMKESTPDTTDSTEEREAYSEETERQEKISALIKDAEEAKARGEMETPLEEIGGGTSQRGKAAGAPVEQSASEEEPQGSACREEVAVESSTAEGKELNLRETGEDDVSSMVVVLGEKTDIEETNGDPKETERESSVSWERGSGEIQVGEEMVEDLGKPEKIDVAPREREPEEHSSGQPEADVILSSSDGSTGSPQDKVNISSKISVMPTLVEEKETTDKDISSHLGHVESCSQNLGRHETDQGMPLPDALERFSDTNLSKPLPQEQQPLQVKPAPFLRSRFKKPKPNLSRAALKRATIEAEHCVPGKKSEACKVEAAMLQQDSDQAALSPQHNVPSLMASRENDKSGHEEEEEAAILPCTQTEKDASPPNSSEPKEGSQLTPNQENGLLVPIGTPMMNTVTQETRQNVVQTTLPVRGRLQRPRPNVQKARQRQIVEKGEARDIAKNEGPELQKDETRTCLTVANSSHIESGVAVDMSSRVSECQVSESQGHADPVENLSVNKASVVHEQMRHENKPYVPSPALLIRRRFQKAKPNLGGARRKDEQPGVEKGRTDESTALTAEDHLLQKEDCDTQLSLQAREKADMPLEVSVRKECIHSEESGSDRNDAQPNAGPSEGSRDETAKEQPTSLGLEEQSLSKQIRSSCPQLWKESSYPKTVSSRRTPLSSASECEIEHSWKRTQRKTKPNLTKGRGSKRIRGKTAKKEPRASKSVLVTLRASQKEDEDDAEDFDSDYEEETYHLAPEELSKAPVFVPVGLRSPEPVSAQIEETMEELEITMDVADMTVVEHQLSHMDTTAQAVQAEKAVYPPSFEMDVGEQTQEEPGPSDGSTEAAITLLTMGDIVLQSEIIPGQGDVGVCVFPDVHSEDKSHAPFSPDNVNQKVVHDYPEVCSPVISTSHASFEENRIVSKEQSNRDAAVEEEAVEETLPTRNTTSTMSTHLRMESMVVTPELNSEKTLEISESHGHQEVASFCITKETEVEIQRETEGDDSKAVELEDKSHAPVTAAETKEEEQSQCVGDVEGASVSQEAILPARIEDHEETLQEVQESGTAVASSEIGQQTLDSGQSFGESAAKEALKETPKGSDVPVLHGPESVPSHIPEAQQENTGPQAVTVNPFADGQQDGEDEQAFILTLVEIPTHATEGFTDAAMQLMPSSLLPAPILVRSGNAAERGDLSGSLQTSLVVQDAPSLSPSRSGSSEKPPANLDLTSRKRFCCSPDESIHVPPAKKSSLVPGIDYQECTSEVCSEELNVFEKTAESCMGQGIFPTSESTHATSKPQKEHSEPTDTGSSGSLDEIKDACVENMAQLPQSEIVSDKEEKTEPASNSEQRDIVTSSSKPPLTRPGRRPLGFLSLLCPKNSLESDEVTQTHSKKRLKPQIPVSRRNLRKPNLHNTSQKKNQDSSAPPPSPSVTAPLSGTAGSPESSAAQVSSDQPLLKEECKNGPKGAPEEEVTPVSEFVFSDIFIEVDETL
UniProt Q56A08: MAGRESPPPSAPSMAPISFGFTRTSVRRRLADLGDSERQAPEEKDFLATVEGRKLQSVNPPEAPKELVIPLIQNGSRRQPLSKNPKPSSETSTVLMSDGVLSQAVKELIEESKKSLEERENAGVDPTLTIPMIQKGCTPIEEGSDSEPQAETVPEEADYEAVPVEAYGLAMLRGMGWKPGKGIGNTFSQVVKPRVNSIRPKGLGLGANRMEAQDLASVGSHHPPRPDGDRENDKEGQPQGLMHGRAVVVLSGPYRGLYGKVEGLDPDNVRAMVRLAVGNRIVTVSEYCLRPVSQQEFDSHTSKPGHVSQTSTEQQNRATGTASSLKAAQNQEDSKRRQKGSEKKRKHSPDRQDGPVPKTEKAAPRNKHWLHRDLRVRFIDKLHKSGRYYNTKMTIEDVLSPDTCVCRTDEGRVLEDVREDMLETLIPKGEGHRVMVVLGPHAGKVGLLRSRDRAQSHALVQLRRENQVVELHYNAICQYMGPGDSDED
UniProt Q5BLK4: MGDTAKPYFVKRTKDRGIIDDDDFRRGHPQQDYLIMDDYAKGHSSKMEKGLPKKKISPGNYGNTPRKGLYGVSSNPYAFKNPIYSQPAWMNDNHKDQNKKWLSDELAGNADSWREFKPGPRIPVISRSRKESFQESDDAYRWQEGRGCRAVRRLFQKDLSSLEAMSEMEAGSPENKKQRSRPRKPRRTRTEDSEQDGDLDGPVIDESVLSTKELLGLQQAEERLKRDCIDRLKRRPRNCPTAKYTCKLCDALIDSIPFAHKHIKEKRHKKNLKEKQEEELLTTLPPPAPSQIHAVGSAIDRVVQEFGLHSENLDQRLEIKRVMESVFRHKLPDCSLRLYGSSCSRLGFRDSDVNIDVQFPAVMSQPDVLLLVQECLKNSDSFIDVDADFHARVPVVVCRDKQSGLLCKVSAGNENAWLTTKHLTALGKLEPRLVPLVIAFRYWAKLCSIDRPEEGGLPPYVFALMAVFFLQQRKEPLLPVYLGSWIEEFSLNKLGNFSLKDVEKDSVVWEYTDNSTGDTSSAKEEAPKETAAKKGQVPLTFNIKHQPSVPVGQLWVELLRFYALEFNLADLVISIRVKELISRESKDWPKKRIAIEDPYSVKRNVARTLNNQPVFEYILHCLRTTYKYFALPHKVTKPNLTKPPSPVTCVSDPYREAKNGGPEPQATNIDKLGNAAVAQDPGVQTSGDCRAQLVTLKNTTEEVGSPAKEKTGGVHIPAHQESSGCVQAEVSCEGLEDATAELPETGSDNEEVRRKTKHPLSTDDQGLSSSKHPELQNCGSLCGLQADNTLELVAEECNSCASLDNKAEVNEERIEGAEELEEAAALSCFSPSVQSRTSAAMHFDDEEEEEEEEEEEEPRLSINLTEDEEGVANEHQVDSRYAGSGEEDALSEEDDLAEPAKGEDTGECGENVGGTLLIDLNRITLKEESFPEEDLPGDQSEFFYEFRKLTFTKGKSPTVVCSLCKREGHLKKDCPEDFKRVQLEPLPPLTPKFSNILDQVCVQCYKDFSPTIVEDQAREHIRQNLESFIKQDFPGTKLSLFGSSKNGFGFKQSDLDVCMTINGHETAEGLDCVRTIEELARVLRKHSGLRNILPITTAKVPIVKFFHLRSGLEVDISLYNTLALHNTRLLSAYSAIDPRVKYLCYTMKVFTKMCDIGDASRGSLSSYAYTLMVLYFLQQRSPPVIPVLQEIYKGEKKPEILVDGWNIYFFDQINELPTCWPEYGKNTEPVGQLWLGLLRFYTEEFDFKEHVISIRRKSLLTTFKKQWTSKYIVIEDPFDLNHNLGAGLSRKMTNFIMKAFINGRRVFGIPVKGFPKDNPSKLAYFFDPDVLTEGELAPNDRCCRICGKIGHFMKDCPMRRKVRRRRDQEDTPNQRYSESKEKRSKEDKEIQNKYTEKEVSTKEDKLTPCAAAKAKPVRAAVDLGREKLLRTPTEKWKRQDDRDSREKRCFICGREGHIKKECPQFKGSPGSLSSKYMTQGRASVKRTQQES
UniProt Q3V2Q8: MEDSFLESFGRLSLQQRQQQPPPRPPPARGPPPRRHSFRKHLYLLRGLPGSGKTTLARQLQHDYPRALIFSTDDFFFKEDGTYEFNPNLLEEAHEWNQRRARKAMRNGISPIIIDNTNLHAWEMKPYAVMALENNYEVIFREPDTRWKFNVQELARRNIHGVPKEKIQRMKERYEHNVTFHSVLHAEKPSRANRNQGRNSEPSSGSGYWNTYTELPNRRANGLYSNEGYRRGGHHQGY
UniProt Q3UDK1: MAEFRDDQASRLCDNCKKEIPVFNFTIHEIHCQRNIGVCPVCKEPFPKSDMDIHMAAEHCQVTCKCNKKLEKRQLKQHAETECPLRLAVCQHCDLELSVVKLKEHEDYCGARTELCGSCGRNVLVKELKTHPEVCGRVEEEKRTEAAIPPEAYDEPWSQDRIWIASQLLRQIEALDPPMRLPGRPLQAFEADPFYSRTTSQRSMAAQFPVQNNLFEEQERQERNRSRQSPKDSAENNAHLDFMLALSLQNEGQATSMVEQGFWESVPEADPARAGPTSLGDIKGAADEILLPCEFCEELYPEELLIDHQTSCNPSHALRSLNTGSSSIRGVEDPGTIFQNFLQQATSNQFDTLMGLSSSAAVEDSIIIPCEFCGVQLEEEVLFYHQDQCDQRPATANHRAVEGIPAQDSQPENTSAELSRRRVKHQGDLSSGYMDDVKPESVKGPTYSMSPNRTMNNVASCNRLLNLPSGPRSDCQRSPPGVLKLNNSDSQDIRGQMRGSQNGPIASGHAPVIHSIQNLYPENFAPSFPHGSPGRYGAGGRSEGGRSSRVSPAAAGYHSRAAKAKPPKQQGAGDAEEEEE

These targets were tested with CN[C@@H]1C[C@H]2O[C@@](C)([C@@H]1OC)n1c3ccccc3c3c4c(c5c6ccccc6n2c5c31)C(=O)NC4 [staurosporine] (assay: log2 fold change of tryptic peptide abundance, ligand vs vehicle (limited proteolysis) (log2 ratio); higher = more trypsin-susceptible (destabilized)). Details: ligand concentration: 20 uM; sample: mouse liver crude lysate; replicate design: treated separately.

| Target | log2 fold change |
| --- | --- |
| UniProt Q3USH5 (peptide sequence: TLPILEGKPPERPSNR, peptide start residue: 726) | 0.31 |
| UniProt Q3UYI5 (peptide sequence: GNLINFEKR, peptide start residue: 442) | 0.406 |
| UniProt Q3UJB9 (peptide sequence: ETCSTLTESPR, peptide start residue: 841) | -0.351 |
| UniProt Q3UMU9 (peptide sequence: NTDVVATLKK, peptide start residue: 512) | 0.329 |
| UniProt Q3UH60 (peptide sequence: IQQLLNTLKRPK, peptide start residue: 274) | -0.441 |
| UniProt Q3UQ84 (peptide sequence: FGLFEELWTAHVK, peptide start residue: 41) | 0.55 |
| UniProt Q3U6N9 (peptide sequence: AATHSAQVQLVSEATRK, peptide start residue: 176) | 0.183 |
| UniProt Q3UBX0 (peptide sequence: SSGSHLEAK, peptide start residue: 207) | 0.34 |
| UniProt Q3UK78 (peptide sequence: NKPQENGQDDISKVDK, peptide start residue: 101) | 0.312 |
| UniProt Q3UVL4 (peptide sequence: LSHHLQGLK, peptide start residue: 407) | -0.35 |
| UniProt Q3UUG6 (peptide sequence: AGQPLESDNVK, peptide start residue: 256) | 0.152 |
| UniProt Q3UTH8 (peptide sequence: KLEEKIR, peptide start residue: 409) | -0.118 |
| UniProt Q3UQI9 (peptide sequence: SVSEDSPLGYSHTEGNSR, peptide start residue: 308) | -0.34 |
| UniProt Q3UPP8 (peptide sequence: MEISQLTR, peptide start residue: 412) | 0.327 |
| UniProt Q4VGL6 (peptide sequence: GADQQQPPQHSK, peptide start residue: 402) | 0.515 |
| UniProt Q52KI8 (peptide sequence: KVELSESEEDKGSK, peptide start residue: 457) | 0.213 |

| Target | log2 fold change |
| --- | --- |
| UniProt Q3V1L4 (peptide sequence: LQNAADVPANMDKHALKK, peptide start residue: 9) | -0.261 |
| UniProt Q3UDE2 (peptide sequence: VHCDVQQVLGHLTHPR, peptide start residue: 302) | -0.976 |
| UniProt Q3ULD5 (peptide sequence: ALVSQLHER, peptide start residue: 51) | 0.163 |
| UniProt Q3UPF5 (peptide sequence: AQLSSVSSK, peptide start residue: 303) | -0.144 |
| UniProt Q3UHR0 (peptide sequence: ASLASCAGGMLGR, peptide start residue: 295) | 0.0153 |
| UniProt Q3U487 (peptide sequence: YDQWWECK, peptide start residue: 524) | 0.361 |
| UniProt Q571C7 (peptide sequence: TGDKNNAAESSTLSSASSQR, peptide start residue: 75) | 0.547 |
| UniProt Q3UJU9 (peptide sequence: SYALNGKEEAEAALKK, peptide start residue: 300) | -0.319 |
| UniProt Q3UIK4 (peptide sequence: ASYDTSAPNSK, peptide start residue: 53) | 0.158 |
| UniProt Q56A08 (peptide sequence: DFLATVEGR, peptide start residue: 45) | 0.438 |
| UniProt Q3UUJ4 (peptide sequence: ASHILISTDGK, peptide start residue: 198) | -0.0893 |
| UniProt Q5BLK4 (peptide sequence: YTEKEVSTKEDK, peptide start residue: 1394) | 0.517 |
| UniProt Q3UEG6 (peptide sequence: QHLSPVDTAYFR, peptide start residue: 71) | -0.262 |
| UniProt Q3V2Q8 (peptide sequence: FNVQELAR, peptide start residue: 149) | 0.124 |
| UniProt Q3UDK1 (peptide sequence: THPEVCGR, peptide start residue: 130) | -0.325 |

Given tab-delimited: entries from further up
Target	log2 fold change
UniProt Q571C7 (peptide sequence: TGDKNNAAESSTLSSASSQR, peptide start residue: 75)	0.547
UniProt Q3UJU9 (peptide sequence: SYALNGKEEAEAALKK, peptide start residue: 300)	-0.319
UniProt Q3UIK4 (peptide sequence: ASYDTSAPNSK, peptide start residue: 53)	0.158
UniProt Q56A08 (peptide sequence: DFLATVEGR, peptide start residue: 45)	0.438
UniProt Q3UUJ4 (peptide sequence: ASHILISTDGK, peptide start residue: 198)	-0.0893
UniProt Q5BLK4 (peptide sequence: YTEKEVSTKEDK, peptide start residue: 1394)	0.517
UniProt Q3UEG6 (peptide sequence: QHLSPVDTAYFR, peptide start residue: 71)	-0.262
UniProt Q3V2Q8 (peptide sequence: FNVQELAR, peptide start residue: 149)	0.124
